# Screening data

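Uptake of anthrax lethal toxin into cultured cells, read by FRET (460/530 nm ratio) and reported from the 460 nm channel; the cell line is not named here.
Each compound was tested as a concentration series from about 0.0005 to 40 µM.
The number is the fitted AC50 of the 460 nm signal alone; lower values mean a more potent effect. A falling signal goes with compounds filed as inhibitors or cytotoxic, a rising one with activators or fluorescent compounds (inferred from the filed classes).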

Values are in µM.
Common to all entries: measured here: 460 nm channel.
Part of the compounds only, not a random draw; the main read-out is not listed here.
Potencies fitted to partial, single-point or poorly fitting curves are rough.
The first word of each remark tells which way the curve ran; it can be opposite to the aim of the assay.

- O=C1NC(=O)C2(Cc3c(nc4ccccn4c3=O)N3CCCCCC32)C(=O)N1Cc1ccccc1 (centres undefined) : AC50 0.5012 µM (falling, full curve, poor fit)
- COc1ccc(CCN2C(=O)CC(N3CCOCC3)C2=O)cc1 (centres undefined) : AC50 12.59 µM (rising, partial curve)
- O=C(CSc1nccc2ccccc12)N1CCN(c2ccccn2)CC1 : AC50 12.59 µM (falling, partial curve)
- CC(=O)N1CCC[C@@]2(CCN(Cc3ccccc3)C2)C1 : AC50 5.012 µM (falling, single point)
- CCCn1c(SCC(=O)O)nc2ccccc21 : AC50 0.1 µM (falling, full curve)
- Cn1c(=O)n(CCc2ccccc2)c(=O)c2c1nc1n2CCCN1c1ccccc1 : AC50 0.0631 µM (falling, full curve, poor fit)
- c1cc2ccc3cccc4ccc(c1)c2c34 : AC50 10 µM (falling, full curve, poor fit)
- Cc1cc(C)cc(N(CC(=O)N2CCn3c2nc2ccccc23)S(=O)(=O)c2c(C)noc2C)c1 : AC50 0.5012 µM (falling, full curve)
- COc1cccc(-c2nccc(NCc3cccc(C)c3)n2)c1 : AC50 31.62 µM (falling, single point)
- CN(C)c1ccc(-c2cc(-n3ccnc3)ncn2)cc1 : AC50 3.981 µM (falling, single point)
- NC(=O)CCCC1=NS(=O)(=O)c2ccccc2N1 : AC50 5.012 µM (rising, single point)
- O=C(Cn1nc(Cc2cccnc2)c2ccccc2c1=O)N1CCN(c2ccccn2)CC1 : AC50 12.59 µM (rising, single point)
- N#Cc1nc(COc2cccc(Cl)c2)oc1NCc1ccco1 : AC50 1 µM (falling, partial curve)
- CCOc1ccc(N2CC(=O)N/C2=N\c2nc(C)cc(C)n2)cc1 : AC50 0.003981 µM (falling, full curve, poor fit)
- Cc1nc2ccc3nc(NC(=O)C4COc5ccccc5O4)sc3c2s1 (centres undefined) : AC50 5.012 µM (falling, partial curve)
- O=C(CN1C(=O)CCC1=O)Nc1nc(-c2cccs2)cs1 : AC50 5.012 µM (rising, single point)
- Cc1cc(=O)[nH]c(SCC2(O)C3CC4CC(C3)CC2C4)n1 (centres undefined) : AC50 6.31 µM (rising, partial curve)
- CN1CCN(C(=O)c2cc3nc(-c4ccc(F)cc4)cc(C(F)(F)F)n3n2)CC1 : AC50 12.59 µM (rising, partial curve)
- O=c1cc(NCc2ccc3c(c2)OCO3)[nH]c(=O)n1-c1ccc(Cl)cc1 : AC50 19.95 µM (falling, single point)
- CC(C)CCn1c(SCC(=O)OCn2nnc3ccccc3c2=O)nc2ccccc2c1=O : AC50 6.31 µM (rising, partial curve)
- CO[C@]1(NC(=O)C2SC(=C(C(N)=O)C(=O)O)S2)C(=O)N2C(C(=O)O)=C(CSc3nnnn3C)CS[C@H]21 (some centres undefined) : AC50 1.259 µM (falling, full curve)
- COc1cccc(Cn2c(C3CC3)nc3ccc(NC(=O)c4ccco4)cc3c2=O)c1 : AC50 12.59 µM (falling, partial curve)
- CO[C@]1(NC(=O)CSCC#N)C(=O)N2C(C(=O)O)=C(CSc3nnnn3C)CS[C@H]21 : AC50 31.62 µM (falling, single point)
- CCOc1ccc(-n2c(=O)[nH]cc(C(=O)N3CCCc4ccccc43)c2=O)cc1 : AC50 5.012 µM (rising, partial curve)
- COC(=O)c1ccc(C(C(=O)NCc2ccccc2)N(Cc2ccco2)C(=O)c2cnccn2)cc1 (centres undefined) : AC50 0.1 µM (falling, full curve, poor fit)
- COC(=O)N1CCC2(CCN(Cc3cc(C(F)(F)F)cc(C(F)(F)F)c3)CC2)CC1 : AC50 10 µM (rising, single point)
- Cc1cc(NC(=O)CCC(=O)N(CCC(C)C)CC(=O)NCC2CCCO2)no1 (centres undefined) : AC50 12.59 µM (rising, single point)
- CCN(CC)CCc1nc(-c2ccccc2)no1 : AC50 5.012 µM (rising, single point)
- CCOC(=O)c1c(-c2ccc(OC)cc2)oc2ccc(OC(=O)N(C)C)cc12 : AC50 12.59 µM (falling, partial curve, poor fit)
- CCN1CCN(C(=O)CSCc2nc(-c3ccc(OC)c(OC)c3)oc2C)CC1 : AC50 12.59 µM (rising, single point)

Once more, the final 2:

compound	AC50 (µM)	curve
CCOC(=O)c1c(-c2ccc(OC)cc2)oc2ccc(OC(=O)N(C)C)cc12	12.59	falling, partial curve, poor fit
CCN1CCN(C(=O)CSCc2nc(-c3ccc(OC)c(OC)c3)oc2C)CC1	12.59	rising, single point

Data taken from PubChem BioAssay AID912, deposited by NCATS (2007).